For data set [1], the system named is wild-type C57BL/6 male mice. The data set is described as follows: Noxious thermal sensitivity, Hargreaves method (paw withdrawal latency to radiant heat) after i.t. injection. Type of data set: in vivo, mouse. Conditions: single i.t. injection, highest dose. The procedure: Behavior. C57BL/6 male mice, 2-3 months old, were purchased from Jackson Laboratories (Bar Harbor, Maine, United States of America) for all behavioral experiments involving PAP protein injections. All mice were acclimated to the testing room, equipment and experimenter for one day before behavioral testing. The experimenter was blind to genotype and drug treatment during behavioral testing.
Thermal sensitivity was measured by heating one hindpaw with a Plantar Test apparatus (IITC) following the Hargreaves method (Hargreaves et al., 1988). The radiant heat source intensity was calibrated so that a paw withdrawal reflex was evoked in ˜10 seconds, on average, in wild-type C57BL/6 mice. Cutoff time was 20 s. One measurement was taken from each paw per day to determine paw withdrawal latency. To perform the tail immersion assay, mice were gently restrained in a towel and the distal one-third of the tail was immersed in 46.5° C. water. Latency to withdrawal the tail was measured once per mouse. Mechanical sensitivity was measured using semi-rigid tips attached to an Electronic von Frey apparatus (IITC) as described elsewhere (Cunha et al., 2004; Inoue et al., 2004). Three measurements were taken from each paw (separated at 5 min. intervals) then averaged to determine paw withdrawal threshold in grams. […]

Data set [2] has as its system wild-type C57BL/6 male mice. The settings on record: 50 μg, i.t., single injection, mice (Grant et al., 1995); cited from earlier work.
Data set [3] concerns wild-type C57BL/6 male mice. Conditions: mouse, in vivo. The source says:
Signs of immune and microglial activation can be monitored using molecular markers.

Results on 1 molecule are retold here after patent US20100266569A1, “PROSTATIC ACID PHOSPHATASE FOR THE TREATMENT OF PAIN” (priority 2007, published 2010).

Turning to `CN1CC[C@]23c4c5ccc(O)c4O[C@H]2[C@@H](O)C=C[C@H]3[C@H]1C5.O=S(=O)(O)O` [morphine, morphine sulfate], the duration of antinociception in data set [1] is 5 h. In data set [2], the “duration of morphine antinociception, previous reports” value is 4.6 ± 1.0 h. Also, in data set [3], the “mice paralyzed and displaying a Straub tail” value is reported as “three”; the mice that died entry is listed as “two”.
